Results are given in words; binding and its absence hold for the method and conditions named. In cells and extracts the contact can be indirect. Binding can be weak; no strength is given.
Target: T1, nuclear factor kappa-B repressing factor (NKRF) (human (endogenous in MRC-5)) (UniProt O15226)
T1 sequence: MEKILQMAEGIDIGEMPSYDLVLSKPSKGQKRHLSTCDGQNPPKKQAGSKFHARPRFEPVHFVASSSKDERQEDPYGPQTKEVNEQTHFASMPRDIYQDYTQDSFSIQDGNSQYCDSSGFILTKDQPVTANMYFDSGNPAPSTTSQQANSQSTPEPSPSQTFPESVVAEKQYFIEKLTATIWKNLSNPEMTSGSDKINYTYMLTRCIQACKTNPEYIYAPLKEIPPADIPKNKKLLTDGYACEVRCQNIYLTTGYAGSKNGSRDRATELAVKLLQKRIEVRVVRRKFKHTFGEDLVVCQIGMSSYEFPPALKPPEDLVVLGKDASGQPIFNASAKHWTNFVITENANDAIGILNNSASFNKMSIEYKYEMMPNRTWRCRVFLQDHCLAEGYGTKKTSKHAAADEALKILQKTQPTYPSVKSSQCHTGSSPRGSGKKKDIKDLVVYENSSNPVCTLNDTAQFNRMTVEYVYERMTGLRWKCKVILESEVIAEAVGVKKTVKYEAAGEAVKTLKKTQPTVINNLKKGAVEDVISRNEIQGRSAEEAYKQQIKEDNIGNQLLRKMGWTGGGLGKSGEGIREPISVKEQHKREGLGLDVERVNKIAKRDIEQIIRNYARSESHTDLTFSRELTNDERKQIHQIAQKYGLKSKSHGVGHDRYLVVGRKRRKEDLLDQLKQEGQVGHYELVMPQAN
Test: co-IP; MRC-5 cells 48 or 72 h after infection; lysis buffer with 150 mM KCl, 25 mM Tris-HCl pH 7.4, 5 mM EDTA, 0.5% Triton X-100, 5 mM DTT; anti-NKRF antibody overnight at 4°C, beads 2-4 h at room temperature, five washes; analysed by WB; normal IgG as negative control

binding: binds
Substance: nuclear factor kappa-B (NF-κB) (human (endogenous in MRC-5))

From article PMC12712653
